# Laboratory results from PubChem BioAssay AID493014 (National Center for Advancing Translational Sciences (NCATS), 2011).
# In all, about 340,000 compounds went through this assay and about 170 (0.05%) were called active. This list was built around the results that the source calls inconclusive (neither active nor inactive); the mix of calls is not that of the screen. Calls follow the shape of the dose curve; as a rule, active = well fitted inhibition curve with a large enough effect in the signal ratio, with a control signal flat (not every such curve was filed as active); inconclusive = small, poorly fitted or top-dose-only effect, or effect the other way, or a change in a side signal; inactive = flat fitted curve, though single readings scatter; the % refers to the signal ratio. Where the call is inconclusive, the potency comes from a doubtful curve fit.
# Test: qHTS Assay to Find Inhibitors of Chronic Active B-Cell Receptor Signaling;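 as to activity change, negative = inhibition: plate controls were basal doxycycline-induced cells for no effect and cells given 10 µM MG132 for full effect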
# Settings: ABC-DLBCL IkBa-CBG/CBR reporter, luminescence ratio (green luciferase fused to IkBa over red control in TMD8 lymphoma cells), 4 h; activity change, negative = inhibition: at 46.1 µM (top of the series) unless noted
# How it was run: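 Concentration-response series (up to 46 uM) were applied to TMD8 dual-reporter cells for 4 h at 37C with doxycycline. Green/red ratio, after filter-overlap correction, defined %Activity; red signal alone was normalised to basal cells and zero luminescence.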
# Potency is read from the fitted curve at half-maximal effect.
SMILES,"activity change, negative = inhibition",Potency
Cc1c(-n2c(=O)n(Cc3ccccc3)c(=O)c3[nH]cnc32)cccc1S(C)=O (stereo not given),inconclusive: 3.84%,
C=CCOc1ccc2c(CC)cc(=O)oc2c1C,inconclusive: -12.5%,
CCOc1ccc(CNCCNC(=O)c2nonc2N)cc1,inactive: 0%,
COc1cccc(CNC(=O)C2CCN(S(=O)(=O)N3CCC4(CC3)OCCO4)CC2)c1,inconclusive: -0.425%,
CCOC(=O)c1c(C=O)c(C)n(Cc2ccc(C)cc2)c1C,,"inconclusive: 29.1 µM [falling, single point]"
Cn1c(=O)c2c(ncn2CC(=O)NC[C@H]2O[C@@H](n3cnc4c(N)ncnc43)[C@H](O)[C@@H]2O)n(C)c1=O,inconclusive: -2.16%,
C[C@@]12C(=O)N(CCO)CC(=O)N1[C@H](/C=C/c1ccccc1)[C@@H]1C(=O)N(c3ccccc3)C(=O)[C@@H]12,inconclusive: 1.01%,
CCCCC(NC(=O)Cc1c(C)c2cc3c4c(oc3cc2oc1=O)CCCC4)C(=O)O (stereo not given),inconclusive: -25.5%,
CCOc1ccc2c(c1)OC(c1ccccc1)(C(F)(F)F)NC2=O (stereo not given),inactive: 1.24%,
CCOc1ccccc1NC(=O)C(CC)Sc1nc2ccsc2c(=O)n1CCC(=O)O (stereo not given),inconclusive: -3.09%,
COc1ccc(-c2nc3ccccn3c2NC2CCCCC2)cc1SC1CCCCC1,inconclusive: 8.36%,
FC(F)Sc1ccc(NC(=S)NCC2CCCCC2)cc1,inconclusive: -3.7%,
COc1ccc(Nc2nc(N3CCCCC3)nc3ccccc23)c(OC)c1,inconclusive: 13.3%,
CC1CC2=C(NC(=S)NC2c2cccc(F)c2)/C(=C/c2cccc(F)c2)C1 (stereo not given),inconclusive: 5.13%,
COc1ccc(/C=C2/C(=O)C(C)(C(C)C)CCC2C)cc1 (stereo not given),inconclusive: 1.18%,
COc1ccc(-c2noc(-c3ccc(Br)o3)n2)cc1,inconclusive: 12%,
CC(=O)Nc1ccc(/C=C/c2nc(-c3ccccc3O)n[nH]2)cc1,inconclusive: -0.117%,
CC(C)n1cc(/C=N/Nc2ccc(C(=O)O)cc2)c2ccccc21,inconclusive: 4.85%,
C=CCn1cccc(C(=O)Nc2ccc(OCC)cc2)c1=O,,"inconclusive: 25.1 µM [falling, single point]"
CCOC(=O)c1sc(-c2ccc(OC)cc2)cc1NC(C)=O,inactive: 5.01%,
CCC(=O)OC1CC(C)N(C(=O)c2ccccc2)c2ccc(C)cc21 (stereo not given),inconclusive: 26.4%,
O=C(CCl)N1CCN2C(=O)c3ccccc3C12c1ccc(Cl)cc1 (stereo not given),,"inconclusive: 22.4 µM [falling, single point]"
Cc1ccc(NC(=S)NC(=O)Cc2ccccc2)c(O)c1,inactive: 4.99%,
CCc1ccc(Nc2nnc(SCC(=O)Nc3ccc(C(=O)O)cc3)s2)cc1,,"inconclusive: 35.5 µM [falling, single point]"
COc1cccc2[nH]c3c(N4CCc5ccccc5C4)ncnc3c12,inconclusive: 25.8%,
Cc1sc2ncnc(N3CCC(C(=O)Nc4ccc(F)cc4Cl)CC3)c2c1C,inconclusive: -5.06%,
COc1ccc(-n2c(C)c([N+](=O)[O-])c3ccc(O)c(CN(C)C)c32)cc1,inconclusive: 5.24%,

# Ordered by number of heavy atoms (smallest number first): 5 of the compounds above
SMILES,"activity change, negative = inhibition",Potency
COc1ccc(-c2noc(-c3ccc(Br)o3)n2)cc1,inconclusive: 12%,
Cc1ccc(NC(=S)NC(=O)Cc2ccccc2)c(O)c1,inactive: 4.99%,
Cc1c(-n2c(=O)n(Cc3ccccc3)c(=O)c3[nH]cnc32)cccc1S(C)=O (stereo not given),inconclusive: 3.84%,
COc1cccc(CNC(=O)C2CCN(S(=O)(=O)N3CCC4(CC3)OCCO4)CC2)c1,inconclusive: -0.425%,
C[C@@]12C(=O)N(CCO)CC(=O)N1[C@H](/C=C/c1ccccc1)[C@@H]1C(=O)N(c3ccccc3)C(=O)[C@@H]12,inconclusive: 1.01%,

# (cont.)

SMILES,"activity change, negative = inhibition",Potency
CCc1cc(=O)oc2cc(C)cc(OC(C)C(=O)NCCN3CCOCC3)c12 (stereo not given),inconclusive: -8.62%,
O=C(/C=C\c1ccco1)Oc1cccc2cccnc12,,"inconclusive: 35.5 µM [falling, single point]"
CCc1ccc(-n2c(C)nc3cc(C(=O)NCc4cccnc4)ccc32)cc1,,"inconclusive: 25.1 µM [falling, partial curve]"
CN(C)S(=O)(=O)c1cccc(NC(=O)CSc2ncnc3ccccc23)c1,inconclusive: -15.5%,
CCSc1nnc(NC(=O)C(C)(C(F)(F)F)C(F)(F)F)s1,,"inconclusive: 8.2 µM [rising, partial curve, poor fit]"
COc1cc(OC)cc(-c2cc3nc(C)c(CCC(=O)O)c(C)n3n2)c1,,"inconclusive: 20.6 µM [falling, partial curve]"
CCn1cc(C(=O)OCC(=O)c2cc(C)n(-c3cccc(C(F)(F)F)c3)c2C)c(=O)c2ccc(C)nc21,inactive: 10.2%,
COc1ccc(-c2cnc(SCC(=O)Nc3ccc4c(c3)OCO4)n2Cc2ccco2)cc1,inconclusive: 9.91%,
CCC(C)Sc1ccc([C@H]2N[C@@](C)(C(=O)OC)[C@H]3C(=O)N(C)C(=O)[C@@H]23)cc1 (stereo not given in full),inactive: -1.01%,
CCCCn1nc(C(=O)N(CCOC)c2c(N)n(CCCC)c(=O)[nH]c2=O)c2ccccc2c1=O,inactive: -0.598%,
Cc1cccc(NS(=O)(=O)c2ccc(C(=O)N3CCCCCC3)cc2)c1C,inactive: 1.57%,
COc1ccc(-c2csc(NC(=O)c3ccccc3C(=O)O)n2)cc1,inconclusive: -28.1%,
O=C(CN1CCN(C2CCCCC2)CC1)c1ccc2cc[nH]c2c1,,"inconclusive: 29.1 µM [falling, single point]"
Cc1csc(NC(=O)c2cnc3ccccc3n2)n1,,"inconclusive: 15.8 µM [falling, partial curve]"
Nc1nn2c(-c3ccccc3)cc(=O)[nH]c2c1N=Nc1ccc(O)cc1,,"inconclusive: 4.47 µM [falling, partial curve]"
Cc1cccc(N2C(S)=C(C#N)C(=O)NC23CCCCC3)c1,inactive: -0.949%,
CN(C)C(=O)c1cn(-c2ccccc2)c(=O)c2ccccc12,inactive: -28.1%,
Cc1ccc(Cl)cc1N1CCN(C(=O)Cc2csc(Nc3nc(=S)[nH]c4ccccc34)n2)CC1,inactive: -0.952%,
Cc1cccc(N2C(=O)CC(SC(=Nc3ccccc3)Nc3ccccc3)C2=O)c1 (stereo not given),inconclusive: 0.898%,
O=C1OC(c2ccc(F)cc2)=C/C1=C\c1ccc(O)cc1,,"inconclusive: 3.16 µM [falling, single point]"
CSc1sc(C)cc1/C=N/O,inconclusive: -0.608%,
C/C(=N\NC(=O)COc1ccc(C)cc1Br)c1cc([N+](=O)[O-])cs1,inconclusive: 5.07%,
c1csc(-c2nc(N3CCCCC3)no2)c1,inconclusive: 3.89%,
CCSc1nnc(NC(=O)c2nc(-c3ccccc3)n(-c3ccccc3)n2)s1,inconclusive: 7.01%,
C/C(=N\Nc1cc(N2CCCCC2)nc(C)n1)c1ccc(Br)cc1,inconclusive: 2.09%,
COc1ccc2[nH]cc(CCNC(=O)Nc3ccccc3C)c2c1,inconclusive: -4.58%,
Cc1ccc(C(=O)OCc2nnc(-c3ccccc3)o2)s1,inconclusive: 10.3%,

SMILES,"activity change, negative = inhibition",Potency
Cc1cccc(NC(=O)C(C)Oc2ccc(C)nc2[N+](=O)[O-])c1 (stereo not given),inconclusive: 0.169%,
CCOC(=O)Cc1csc(NC(=S)NC(=O)c2ccccc2)n1,,"inconclusive: 29.1 µM [falling, partial curve, poor fit]"
OCCCCNCc1ccc(OCc2ccc(Cl)cc2)cc1,,"inconclusive: 35.5 µM [falling, single point]"
O=C(Nc1ccccc1)N1CCSc2ccccc21,inactive: 0.0339%,
CCOc1ccc(S(=O)(=O)Nc2cccc(N(C)S(C)(=O)=O)c2)cc1,inactive: 0.149%,
O=c1c(Cl)c(N/N=C/c2ccc(Cl)cc2)cnn1-c1ccccc1,inactive: 0.328%,
Cc1c(C(=O)N2CCOCC2)[nH]c2c1C(=O)CC(c1ccc(Cl)cc1)C2 (stereo not given),inconclusive: 12.7%,
COc1ccc(/C=N/NC(=O)c2cc(OC)c(OC)c(OC)c2)cc1CN1CCc2cc(OC)c(OC)cc2C1C (stereo not given),,"inconclusive: 11.2 µM [falling, partial curve, poor fit]"
CN(C(=O)COc1ccccc1C(=O)NCCOc1ccccc1)c1ccccc1,inconclusive: -13.8%,
Cc1ccc(COc2ccccc2C(=S)N2CCCC2)cc1,inconclusive: 17.2%,
Cc1ccc(N(C(=O)c2ccc(S(=O)(=O)N3CCOCC3)cc2)C2C=CS(=O)(=O)C2)cc1 (stereo not given),,"inconclusive: 0.82 µM [falling, full curve, poor fit]"
O=C(OCc1cc([N+](=O)[O-])cc2c1OCOC2)c1ccccn1,inconclusive: 2.43%,
Cc1cccc(C)c1-n1c(C)cc(/C=N/NC(N)=S)c1C,,"inconclusive: 29.1 µM [falling, single point]"
N#Cc1c(Cn2cncn2)nc(=O)n(-c2ccc(Cl)cc2)c1N,inconclusive: 15.2%,
Cc1cccc(-n2c(N)c(-c3nc4ccccc4n3C)c3nc4ccccc4nc32)c1,inactive: -3.01%,
CCCS(=O)(=O)n1nc(-c2ccc(C)cc2)cc1N,inconclusive: 5.36%,
O=C(CCl)N1CCN(C(=O)C2COc3ccccc3O2)CC1 (stereo not given),,"inconclusive: 20.6 µM [falling, single point]"
Cc1ccc(NC(=O)c2cc(-c3ccc4c(c3)OCO4)on2)cc1,,"inconclusive: 20 µM [falling, partial curve, poor fit]"
Cc1cc(Cl)ccc1OCCCC(=O)N1CCCc2ccccc21,,"inconclusive: 2.59 µM [rising, full curve]"
O=C(COC(=O)c1ccccc1NC(=O)c1ccco1)NCCC1=CCCCC1,inconclusive: 8.2%,
CCS(=O)(=O)CCSc1nc2c(cc1C#N)CCCC2,inconclusive: -14.3%,
CCN1CCCC1CNC(=O)c1ccc2c(=O)n(CCOC)c(=O)[nH]c2c1 (stereo not given),inconclusive: 4.07%,
Cc1[nH]nc2c1C(C(C)C)C(C#N)=C(N)O2 (stereo not given),,"inconclusive: 11.2 µM [falling, partial curve, poor fit]"
O=C(CCl)Nc1ccccc1C(=O)Nc1ccc2c(c1)OCO2,,"inconclusive: 22.4 µM [falling, single point]"
NC(=O)C1CCN(C(=O)C2CC(=O)N(Cc3ccccc3)C2)CC1 (stereo not given),inactive: 0.28%,
CC(C)(C)c1ccc(C(=O)N2CCN(CCNC(=O)C(=O)Nc3ccc(F)cc3)CC2)cc1,,"inconclusive: 1.12 µM [falling, full curve, poor fit]"
